Results as given in doi:10.1101/2023.09.27.559775.
Results are given in words; binding and its absence hold for the method and conditions named. In cells and extracts the contact can be indirect. A yes stands for co-enrichment or nearness to the bait. Other partners may have been found.

Biological target: FW2.2 fused to YFP at its C-terminal end (tomato (Solanum lycopersicum cv. AC)) (UniProt Q9LKV7)
Assay: affinity purification with mass spectrometry

Substance | binding
Callose Synthase SlCalS3a (Solyc01g006370) (from UniProt A0A3Q7E8V3) (enzyme) | binds
Callose Synthase SlCalS12 (Solyc07g053980) (from UniProt A0A3Q7I943) (enzyme) | binds
